Source: article PMC10643674

The chains behind the UniProt entries cited, without tags or fusion partners. Where a name states a change or a piece, a line headed by the entry shows the natural chain unless it says otherwise.
UniProt Q96J02: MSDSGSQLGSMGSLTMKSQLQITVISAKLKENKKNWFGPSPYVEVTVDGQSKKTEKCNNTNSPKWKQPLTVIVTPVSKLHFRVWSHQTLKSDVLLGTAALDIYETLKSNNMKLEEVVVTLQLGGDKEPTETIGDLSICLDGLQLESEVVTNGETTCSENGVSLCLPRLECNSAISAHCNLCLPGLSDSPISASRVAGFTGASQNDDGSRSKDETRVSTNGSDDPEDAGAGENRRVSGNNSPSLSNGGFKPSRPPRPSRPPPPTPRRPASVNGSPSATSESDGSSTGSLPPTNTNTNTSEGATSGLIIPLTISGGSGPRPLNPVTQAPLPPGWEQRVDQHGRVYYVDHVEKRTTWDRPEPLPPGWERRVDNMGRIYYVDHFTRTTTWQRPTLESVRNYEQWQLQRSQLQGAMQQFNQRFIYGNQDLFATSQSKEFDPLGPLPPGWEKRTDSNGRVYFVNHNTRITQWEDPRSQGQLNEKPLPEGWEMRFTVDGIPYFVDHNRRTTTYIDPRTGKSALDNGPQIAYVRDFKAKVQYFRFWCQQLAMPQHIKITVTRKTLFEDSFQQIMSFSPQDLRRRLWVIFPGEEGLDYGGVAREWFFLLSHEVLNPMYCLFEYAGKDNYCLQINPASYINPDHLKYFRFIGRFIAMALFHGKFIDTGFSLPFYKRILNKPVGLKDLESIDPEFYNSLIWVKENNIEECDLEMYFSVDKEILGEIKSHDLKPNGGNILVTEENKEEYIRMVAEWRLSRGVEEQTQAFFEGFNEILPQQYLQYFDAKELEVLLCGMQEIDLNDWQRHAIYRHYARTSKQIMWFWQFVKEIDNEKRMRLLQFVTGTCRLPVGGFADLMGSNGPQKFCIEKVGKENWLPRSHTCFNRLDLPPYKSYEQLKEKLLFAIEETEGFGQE
UniProt P12956: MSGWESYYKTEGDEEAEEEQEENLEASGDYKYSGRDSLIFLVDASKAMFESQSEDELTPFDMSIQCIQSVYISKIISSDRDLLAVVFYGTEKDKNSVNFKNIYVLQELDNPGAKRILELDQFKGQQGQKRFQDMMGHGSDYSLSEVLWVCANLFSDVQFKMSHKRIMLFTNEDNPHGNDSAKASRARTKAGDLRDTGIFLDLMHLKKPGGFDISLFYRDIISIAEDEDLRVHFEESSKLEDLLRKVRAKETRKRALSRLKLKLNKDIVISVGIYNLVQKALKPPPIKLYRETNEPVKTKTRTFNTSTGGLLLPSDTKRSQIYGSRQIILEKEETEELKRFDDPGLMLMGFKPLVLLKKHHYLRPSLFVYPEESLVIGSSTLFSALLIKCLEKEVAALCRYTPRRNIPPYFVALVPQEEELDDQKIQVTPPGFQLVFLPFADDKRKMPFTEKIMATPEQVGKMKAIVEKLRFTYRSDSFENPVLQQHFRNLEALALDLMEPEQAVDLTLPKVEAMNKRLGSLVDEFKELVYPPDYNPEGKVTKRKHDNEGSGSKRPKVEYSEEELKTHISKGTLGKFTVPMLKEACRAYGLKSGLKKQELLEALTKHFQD
UniProt O95155: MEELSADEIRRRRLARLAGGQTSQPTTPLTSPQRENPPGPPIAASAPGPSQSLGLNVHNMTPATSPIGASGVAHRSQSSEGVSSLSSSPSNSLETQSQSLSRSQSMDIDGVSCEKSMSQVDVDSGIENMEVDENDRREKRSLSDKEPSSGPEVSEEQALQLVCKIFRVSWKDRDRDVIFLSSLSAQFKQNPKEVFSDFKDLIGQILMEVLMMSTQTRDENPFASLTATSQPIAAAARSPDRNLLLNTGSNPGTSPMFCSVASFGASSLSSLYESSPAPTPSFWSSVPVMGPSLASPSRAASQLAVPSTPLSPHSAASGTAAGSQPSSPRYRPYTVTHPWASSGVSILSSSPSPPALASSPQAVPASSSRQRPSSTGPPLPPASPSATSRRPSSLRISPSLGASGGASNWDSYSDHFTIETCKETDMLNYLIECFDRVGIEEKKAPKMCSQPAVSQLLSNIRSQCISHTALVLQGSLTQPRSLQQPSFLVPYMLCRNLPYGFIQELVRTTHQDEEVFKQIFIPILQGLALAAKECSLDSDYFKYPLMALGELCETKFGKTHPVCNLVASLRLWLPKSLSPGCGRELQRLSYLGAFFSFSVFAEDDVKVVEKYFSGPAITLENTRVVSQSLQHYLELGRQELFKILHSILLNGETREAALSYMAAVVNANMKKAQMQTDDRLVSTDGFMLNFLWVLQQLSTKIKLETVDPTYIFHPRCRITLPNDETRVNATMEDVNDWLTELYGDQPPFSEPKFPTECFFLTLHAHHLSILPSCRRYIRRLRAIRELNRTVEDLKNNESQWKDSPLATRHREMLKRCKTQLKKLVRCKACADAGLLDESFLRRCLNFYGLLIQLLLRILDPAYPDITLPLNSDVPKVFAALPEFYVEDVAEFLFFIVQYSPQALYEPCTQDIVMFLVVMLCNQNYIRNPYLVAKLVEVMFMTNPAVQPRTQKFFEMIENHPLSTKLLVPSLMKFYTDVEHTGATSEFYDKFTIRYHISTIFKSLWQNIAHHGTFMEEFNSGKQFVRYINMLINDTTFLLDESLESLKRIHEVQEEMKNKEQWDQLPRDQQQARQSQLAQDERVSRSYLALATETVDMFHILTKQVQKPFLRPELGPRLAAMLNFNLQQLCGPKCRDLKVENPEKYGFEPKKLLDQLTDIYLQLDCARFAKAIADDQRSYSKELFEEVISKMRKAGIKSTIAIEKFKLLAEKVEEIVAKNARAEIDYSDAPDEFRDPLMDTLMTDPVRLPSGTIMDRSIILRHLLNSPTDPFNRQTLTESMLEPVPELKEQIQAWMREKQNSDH

Tests used:
Assay in all cases: co-IP; HEK 293T cells transiently transfected with tagged ITCH, Ku70 and/or c-FLIPL constructs; lysis and washes in CHAPS buffer (1% CHAPS, 10 mM HEPES, 150 mM NaCl); 2 μg antibody (Myc, Flag, ITCH, UBE4B, Ku70 or c-FLIP) and protein A/G Plus agarose at 4 °C; Western blot; some samples with 5 µM MG132 for 8 h
[1] = target: ITCH phosphomimic mutant T222D (UniProt Q96J02)
[2] = target: ITCH phosphomimic mutant S199D (UniProt Q96J02)
[3] = target: ITCH phosphomimic mutant S232D (UniProt Q96J02)
[4] = target: Flag-ITCHw3 (Flag-ITCH WW deleted mutant, only the WW3 domain kept) (UniProt Q96J02)
[5] = target: Flag-ITCHw2 (Flag-ITCH WW deleted mutant, only the WW2 domain kept) (UniProt Q96J02)
[6] = target: Flag-ITCHw1 (Flag-ITCH WW deleted mutant, only the WW1 domain kept) (UniProt Q96J02)
[7] = target: Flag-ITCHw4 (Flag-ITCH WW deleted mutant, only the WW4 domain kept) (UniProt Q96J02)

binding [1]	binding [2]	binding [3]	binding [4]	binding [5]	binding [6]	binding [7]	Substance
binds	binds	binds	–	–	–	–	Flag-Ku70 (from UniProt P12956 1-609)
–	–	–	binds	binds	binds	–	endogenous Ku70 (from UniProt P12956 1-609)
binds	binds	binds	–	–	binds	binds	endogenous UBE4B (from UniProt O95155 1-1302) (enzyme)

No constants are given. Whether binding was seen depends on the method and setting. In cells and extracts the contact can be indirect. Binding calls can cover weak binding; strength is not graded here.
